# Reference: PubChem BioAssay (NCATS)
# The chains behind the UniProt entries cited, without tags or fusion partners. Where a name states a change or a piece, a line headed by the entry shows the natural chain unless it says otherwise. Residues count along the entry.
# UniProt Q8JUX6, 220-798 limits assumed: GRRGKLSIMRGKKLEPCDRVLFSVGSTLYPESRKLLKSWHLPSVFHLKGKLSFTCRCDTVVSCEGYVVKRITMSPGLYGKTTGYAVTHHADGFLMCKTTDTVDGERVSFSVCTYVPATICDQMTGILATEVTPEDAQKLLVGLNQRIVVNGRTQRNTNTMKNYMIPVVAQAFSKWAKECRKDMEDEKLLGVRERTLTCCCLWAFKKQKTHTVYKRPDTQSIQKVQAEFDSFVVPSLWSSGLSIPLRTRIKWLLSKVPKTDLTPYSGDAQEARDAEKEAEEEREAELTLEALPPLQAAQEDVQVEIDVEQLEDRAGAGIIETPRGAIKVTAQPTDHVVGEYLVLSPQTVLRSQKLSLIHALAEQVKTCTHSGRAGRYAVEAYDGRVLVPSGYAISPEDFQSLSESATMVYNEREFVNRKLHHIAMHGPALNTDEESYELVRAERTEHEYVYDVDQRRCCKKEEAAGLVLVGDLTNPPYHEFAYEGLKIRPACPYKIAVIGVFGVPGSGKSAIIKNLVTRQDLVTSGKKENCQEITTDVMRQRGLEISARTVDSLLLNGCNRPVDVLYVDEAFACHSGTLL
# UniProt P00784: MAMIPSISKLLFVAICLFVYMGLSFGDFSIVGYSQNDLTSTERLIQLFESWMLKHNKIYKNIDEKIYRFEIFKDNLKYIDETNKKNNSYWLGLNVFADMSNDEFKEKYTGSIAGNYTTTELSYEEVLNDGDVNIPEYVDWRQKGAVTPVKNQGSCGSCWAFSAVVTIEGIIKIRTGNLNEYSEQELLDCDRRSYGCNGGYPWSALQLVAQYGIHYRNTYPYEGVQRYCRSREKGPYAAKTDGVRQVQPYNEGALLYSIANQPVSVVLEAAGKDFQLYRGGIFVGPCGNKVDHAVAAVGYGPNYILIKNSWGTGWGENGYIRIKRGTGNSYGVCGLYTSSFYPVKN
# UniProt P09958, whole entry, looked up: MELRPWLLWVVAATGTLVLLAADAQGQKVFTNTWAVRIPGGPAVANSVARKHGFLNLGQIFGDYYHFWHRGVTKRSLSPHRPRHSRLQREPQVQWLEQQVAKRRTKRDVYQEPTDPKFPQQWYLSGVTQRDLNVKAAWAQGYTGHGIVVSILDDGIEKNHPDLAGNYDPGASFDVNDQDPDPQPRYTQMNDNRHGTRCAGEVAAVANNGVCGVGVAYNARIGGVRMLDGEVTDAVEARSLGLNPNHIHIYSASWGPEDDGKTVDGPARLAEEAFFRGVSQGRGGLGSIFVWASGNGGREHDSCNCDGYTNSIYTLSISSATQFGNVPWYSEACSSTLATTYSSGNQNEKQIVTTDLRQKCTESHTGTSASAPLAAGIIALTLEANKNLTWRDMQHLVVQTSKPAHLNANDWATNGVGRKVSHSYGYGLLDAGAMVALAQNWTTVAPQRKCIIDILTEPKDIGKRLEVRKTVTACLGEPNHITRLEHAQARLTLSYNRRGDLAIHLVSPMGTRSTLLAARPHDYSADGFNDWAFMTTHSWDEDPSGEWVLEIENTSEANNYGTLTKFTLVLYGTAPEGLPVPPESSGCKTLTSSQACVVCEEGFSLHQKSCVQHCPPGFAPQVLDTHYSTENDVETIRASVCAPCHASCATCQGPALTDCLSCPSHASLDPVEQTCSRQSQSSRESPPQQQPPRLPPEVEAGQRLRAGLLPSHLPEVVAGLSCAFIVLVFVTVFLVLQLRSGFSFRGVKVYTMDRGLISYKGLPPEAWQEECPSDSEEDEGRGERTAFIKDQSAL
# This list was built around the results that the source calls inconclusive (neither active nor inactive); the mix of calls is not that of the screen. Potencies beside an inconclusive call are fits to weak or partial responses and may not hold up. The source made the active and inactive calls. Calls follow the shape of the full dose curve.
# Assays:
# [1] = target: Polyprotein P1234 (Chikungunya virus (strain S27-African prototype)) (UniProt Q8JUX6); assay: Secondary cell base assay for inhibitors of NSP2Pro Chikungunya virus (CHIKV) (AID 1964100); also: nearly all actives have a fitted effect of over 70% in size; as to activity change, negative = inhibition: % is scaled to controls: 0 for no effect and ±100 for the full control effect
# [2] = target: Polyprotein P1234 (Chikungunya virus (strain S27-African prototype)) (UniProt Q8JUX6); assay: Selectivity profile for inhibitors of NSP2Pro chikungunya virus (CHIKV): Full length NSP2 enzyme counterscreen (CHIKV-NSP2) (AID 1964101); settings: Full-length CHIKV NSP2 protease enzymatic counterscreen; activity change, negative = inhibition: at 50.7 µM (top of the series); also: nearly all actives have a fitted effect of over 65% in size; as to activity change, negative = inhibition: % is scaled to controls: 0 for no effect and ±100 for the full control effect
# [3] = system: Chikungunya virus nsP2 protease; assay: Confirmatory qHTS for inhibitors of NSP2Pro chikungunya virus (CHIKV) (AID 1964105); also: nearly all actives have a fitted effect of over 75% in size; as to activity change, negative = inhibition: % is scaled to controls: 0 for no effect and ±100 for the full control effect
# [4] = target: Polyprotein P1234 (Chikungunya virus (strain S27-African prototype)) (UniProt Q8JUX6); assay: Selectivity profile for inhibitors of NSP2Pro chikungunya virus (CHIKV): Endogenous NS2/3 peptide Counterscreen (AID 1964103); also: nearly all actives have a fitted effect of over 55% in size
# Papain (Carica papaya) = Papain (Carica papaya) (UniProt P00784); assay: Selectivity profile for inhibitors of NSP2Pro chikungunya virus (CHIKV): Papain Counterscreen (AID 1964104); as to activity change, negative = inhibition: % is scaled to controls: 0 for no effect and ±100 for the full control effect
# [5] = system: Hepatitis C virus NS3/4A protease; assay: Selectivity profile for inhibitors of NSP2Pro chikungunya virus (CHIKV): NS34A-HCV Counterscreen (AID 1964106); settings: activity change, negative = inhibition: at 50.9 µM (top of the series) unless noted; also: nearly all actives have a fitted effect of over 55% in size
# Furin (Homo sapiens) = Furin (Homo sapiens) (UniProt P09958); assay: Selectivity profile for inhibitors of NSP2Pro chikungunya virus (CHIKV): Human furin counterscreen (AID 1964102)
# Potency is read from the fitted curve at half-maximal effect.
compound,measurement,setting,value
O=[N+]([O-])c1ccc(S(=O)(=O)N2CCN(c3ccnc4cc(Cl)ccc34)CC2)c([N+](=O)[O-])c1,Potency,[1],active: 5.62 µM
same,Potency,[2],"inconclusive: 0.919 µM [inhibitor, full curve]"
same,Potency,[3],"inconclusive: 2.25 µM [inhibitor, full curve]"
COc1ccc(-c2nc(S(=O)(=O)c3ccc(C)cc3)c(NCc3ccccc3)o2)cc1,Potency,[1],"inconclusive: 1.63 µM [inhibitor, full curve]"
same,Potency,[2],"inconclusive: 16.3 µM [inhibitor, partial curve]"
same,Potency,[4],"inconclusive: 16.3 µM [inhibitor, partial curve]"
same,Potency,Papain (Carica papaya),active: 13 µM
C=C1C(=O)O[C@@H]2C3C(=C(C)[C@@H](O)[C@@H](OC(=O)/C(=C/C)COC(C)=O)[C@@H]12)C(=O)[C@H]1O[C@@]31C (some centres not stated),Potency,[1],"inconclusive: 14.2 µM [inhibitor, partial curve, poor fit]"
same,Potency,[2],active: 7.11 µM
same,Potency,Papain (Carica papaya),inactive
same,Potency,[5],inactive
OCCN1CCN(CCCN2c3ccccc3C=Cc3ccccc32)CC1,Potency,[1],inactive
same,Potency,[2],"inconclusive: 11.6 µM [inhibitor, partial curve]"
same,Potency,[3],inactive
Cc1ccc(C#Cc2cc(-c3nn(-c4nc(C(=O)O)cs4)c(CC4CC4)c3Cc3ccc(S(N)(=O)=O)c(F)c3)ccc2F)o1,Potency,[1],active: 0.13 µM
same,Potency,[2],"inconclusive: 11.6 µM [inhibitor, partial curve]"
same,Potency,[3],inactive
C[C@@H]1O[C@@H](O[C@H]2[C@@H]3C=CO[C@@H](O[C@@H]4O[C@H](CO)[C@@H](O)[C@H](O)[C@H]4O)[C@@H]3[C@@]3(CO)O[C@@H]23)[C@H](O)[C@H](OC(=O)/C=C/c2ccc(O)c(O)c2)[C@H]1O,Potency,[1],inactive
same,Potency,[2],inactive
same,Potency,[3],inactive
Cc1c(C(=O)OCC2CCCC2)[nH]c2c1C(=O)CC(c1ccco1)C2 (configuration not stated),Potency,[1],"inconclusive: 1.46 µM [inhibitor, full curve, poor fit]"
same,Potency,[2],inactive
same,Potency,[4],inactive
same,Potency,[3],inactive
CC1=CC2=C(C)C(=O)[C@](C)(O)[C@H](O)C2=CO1,Potency,[1],inactive
same,Potency,[2],inactive
same,Potency,[4],inactive
same,Potency,[3],inactive
COCC1CN(Cc2ccc(Br)s2)CC12CCNCC2 (configuration not stated),Potency,[1],"inconclusive: 14.6 µM [inhibitor, partial curve]"
same,Potency,[2],"inconclusive: 32.6 µM [inhibitor, partial curve]"
same,Potency,[4],"inconclusive: 16.3 µM [inhibitor, partial curve]"
same,Potency,[3],"inconclusive: 8.96 µM [inhibitor, partial curve]"
COc1ccccc1OC1(C(=O)O)CCN(Cc2ccc(-c3ccn[nH]3)o2)CC1,Potency,[1],"inconclusive: 13 µM [inhibitor, single point]"
same,"activity change, negative = inhibition",[2],inconclusive: -39.2% [inhibitor]
same,Potency,[3],inactive
C=C(C)C(=O)O[C@H]1C[C@@](C)(O)C2(O)CCC(C)(/C=C3/OC(=O)C(COC)=C31)O2 (some centres not stated),Potency,[1],"inconclusive: 3.2 µM [inhibitor, full curve]"
same,Potency,[2],"inconclusive: 11.3 µM [inhibitor, partial curve]"
same,Potency,[4],"inconclusive: 11.3 µM [inhibitor, partial curve]"
same,Potency,[3],"inconclusive: 6.21 µM [inhibitor, partial curve]"
same,Potency,[5],"inconclusive: 14.3 µM [inhibitor, partial curve]"
O=C(O)c1cccc(-n2[nH]c(-c3ccccc3)cc2=O)c1,Potency,[1],"inconclusive: 20.6 µM [inhibitor, partial curve]"
same,Potency,[2],"inconclusive: 10.3 µM [inhibitor, partial curve]"
same,Potency,Papain (Carica papaya),inactive
Nc1cc(-c2ccncc2)c[nH]c1=O,Potency,[1],inactive
same,Potency,[2],"inconclusive: 14.6 µM [inhibitor, partial curve]"
same,Potency,[4],"inconclusive: 10.3 µM [inhibitor, partial curve]"
same,Potency,[3],"inconclusive: 7.11 µM [inhibitor, partial curve]"
C=C1C(=O)O[C@H]2C3=C(C)CCC[C@]3(C)C(=O)C[C@@H]12,Potency,[1],"inconclusive: 2.59 µM [inhibitor, full curve]"
same,Potency,[2],"inconclusive: 18.3 µM [inhibitor, partial curve]"
same,Potency,[4],"inconclusive: 18.3 µM [inhibitor, partial curve]"
same,Potency,Papain (Carica papaya),"inconclusive: 23.1 µM [inhibitor, partial curve, poor fit]"
same,Potency,[3],"inconclusive: 11.3 µM [inhibitor, partial curve]"
C=C1C(=O)O[C@@H]2C[C@H](C)[C@@H]3CC(=O)C(C)=C3C[C@H]12,Potency,[1],"inconclusive: 6.51 µM [inhibitor, full curve]"
same,Potency,[2],"inconclusive: 20.6 µM [inhibitor, single point]"
same,Potency,[4],"inconclusive: 16.3 µM [inhibitor, partial curve]"
O=C(c1ccc(-c2ccco2)cc1)N1CCOC(c2ccccc2)C1 (configuration not stated),Potency,[1],"inconclusive: 13 µM [inhibitor, partial curve, poor fit]"
same,Potency,[2],active: 10.3 µM
same,Potency,[4],"inconclusive: 18.3 µM [inhibitor, partial curve]"
O=C(NCc1cccs1)c1cc2nc(-c3ccco3)cc(C(F)(F)Cl)n2n1,Potency,[1],inactive
same,Potency,[2],inactive
same,Potency,[3],inactive
CC(O)c1ccc(-c2ccc3ncnc(N4CCOCC4)c3c2)o1 (configuration not stated),Potency,[1],"inconclusive: 9.19 µM [inhibitor, partial curve]"
same,Potency,[2],active: 16.3 µM
same,Potency,Papain (Carica papaya),inactive
CC(C)CCNC(=O)[C@H](CC(C)C)NC(=O)[C@H]1O[C@@H]1C(=O)NCc1cccc(C#N)c1,Potency,[1],"inconclusive: 18.3 µM [inhibitor, partial curve]"
same,Potency,Papain (Carica papaya),active: 2.59 µM
CS(=O)(=O)c1ncc(Cl)c(C(=O)N2CCN(c3cccc(Cl)c3)CC2)n1,Potency,[1],active: 1.46 µM
same,Potency,[4],active: 8.19 µM
C=C(C(=O)OC)[C@]12O[C@@](C)(CC[C@@]3(O)/C(=C\C)C(=O)O[C@]3(C)C[C@@H]1OC(=O)C(CO)CN1CCCC1C(=O)O)CC2=O (some centres not stated),Potency,[1],inactive
same,Potency,[4],"inconclusive: 7.68 µM [inhibitor, partial curve]"
same,Potency,[5],"inconclusive: 2.17 µM [inhibitor, partial curve]"
O=C(O[C@@H]1Cc2c(O)cc(O)cc2O[C@@H]1c1ccc(O)c(O)c1)c1cc(O)c(O)c(O)c1,Potency,[1],inactive
same,Potency,[3],"inconclusive: 17.9 µM [inhibitor, single point]"
same,Potency,[5],"inconclusive: 0.651 µM [inhibitor, full curve]"
CCCS(=O)(=O)c1ncc(Cl)c(C(=O)N(Cc2ccccc2)Cc2ccco2)n1,Potency,[1],active: 4.61 µM
same,Potency,[2],active: 18.3 µM
same,Potency,[3],active: 4.49 µM
same,Potency,[5],"inconclusive: 0.146 µM [inhibitor, single point]"
CC(C)(C)OC(=O)N1CCN(c2ccc(NCc3coc(-c4ccc(C#N)cc4)c3)cc2)CC1,Potency,[1],"inconclusive: 11.6 µM [inhibitor, partial curve, poor fit]"
same,Potency,[2],inactive
same,Potency,[5],"inconclusive: 5.8 µM [inhibitor, full curve]"
COC1=Cc2c(nc3n(c2=O)C(C)C(=O)NC3(O)C(C)C)OC=C1 (configuration not stated),Potency,[1],inactive
same,Potency,[3],"inconclusive: 6.97 µM [inhibitor, partial curve]"
same,Potency,[5],inactive
Cc1c(C(=O)OCC2CCCCO2)[nH]c2c1C(=O)CC(c1ccco1)C2 (configuration not stated),Potency,[1],active: 14.6 µM
same,Potency,[2],inactive
same,Potency,[3],inactive
CCCCOc1ccc(C(=O)CCN2CCCCC2)cc1,Potency,[1],"inconclusive: 36.6 µM [inhibitor, partial curve, poor fit]"
same,Potency,Furin (Homo sapiens),"inconclusive: 36.6 µM [inhibitor, single point]"
same,Potency,Papain (Carica papaya),"inconclusive: 20.6 µM [inhibitor, partial curve]"
same,Potency,[3],active: 8.96 µM
same,Potency,[5],inactive
COC(=O)[C@@]1(O)C=CC[C@@H]2[C@@]3(C)C[C@@H](c4ccoc4)OC(=O)[C@H]3CC[C@]21C,Potency,[1],inactive
same,Potency,[3],"inconclusive: 7.82 µM [inhibitor, partial curve]"
O=C(Nc1ccc(Cl)cc1)C1CCCN(C(=O)c2cccc(-c3ccco3)c2)C1 (configuration not stated),Potency,[1],"inconclusive: 13 µM [inhibitor, partial curve, poor fit]"
same,Potency,[4],inactive
same,Potency,[3],"inconclusive: 17.9 µM [inhibitor, single point]"

# Not a retest: an excerpt of the list.
compound,measurement,setting,value
O=[N+]([O-])c1ccc(S(=O)(=O)N2CCN(c3ccnc4cc(Cl)ccc34)CC2)c([N+](=O)[O-])c1,Potency,[1],active: 5.62 µM
same,Potency,[2],"inconclusive: 0.919 µM [inhibitor, full curve]"

# Some of the entries so far, with bars between the fields:
compound | measurement | setting | value
CCCCOc1ccc(C(=O)CCN2CCCCC2)cc1 | Potency | [5] | inactive
COC(=O)[C@@]1(O)C=CC[C@@H]2[C@@]3(C)C[C@@H](c4ccoc4)OC(=O)[C@H]3CC[C@]21C | Potency | [1] | inactive
